Values from PubChem BioAssay AID1259254 (NCATS, 2017)
Purpose: 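Gene knock-downs that lead to re-replication, shown by excess G2 DNA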 (primary screen). Cells: human HCT116 colorectal cancer cells. Knock-down reagent: single siRNA against human genes. Duration: 3 days. Detection: 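Imaged Hoechst DNA stain sorts each cell into a cycle phase by DNA amount; per plate, G2 fraction set to 0% for non-targeting and 100% for GMNN siRNA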. Direction: G2 robust z-score and G2 cells, % of GMNN control: higher = more G2 cells, more excess DNA replication; raw share of cells in G2: higher = larger share of cells with G2 DNA content. Hit rule: 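An siRNA counts as active if its G2 robust z-score lies at least 5 MADs above the screen median; here such calls match roughly 38% of GMNN control or more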.
The whole screen tested about 59,000 reagents; below is a part drawn at random. About 1,550 of all reagents (2.6%) count as active. 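G2 share is only a proxy for re-replication; each gene was hit by three separate siRNAs, and active genes were retested.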 Raw values vary from plate to plate and are shown uncorrected. The numbers tell different reagents against one gene apart. Not given: the amount of reagent.

gene | reagent | G2 robust z-score | G2 cells, % of GMNN control | raw share of cells in G2 (%) | outcome
TRABD2B (TraB domain containing 2B) | 1 | -1.01 | -4.12 | 2.36 | inactive
TRABD2B (TraB domain containing 2B) | 2 | 0.128 | 3.87 | 5.09 | inactive
TRABD2B (TraB domain containing 2B) | 3 | 0.338 | 5.35 | 6.93 | inactive
H2AC14 (H2A clustered histone 14) | 1 | 4.01 | 31.2 | 19 | inactive
H2AC14 (H2A clustered histone 14) | 2 | 0.566 | 6.95 | 6.65 | inactive
H2AC14 (H2A clustered histone 14) | 3 | -0.159 | 1.85 | 4 | inactive
ANGPTL2 (angiopoietin like 2) | 1 | -1.51 | -7.66 | 3.29 | inactive
ANGPTL2 (angiopoietin like 2) | 2 | -0.966 | -3.83 | 2.87 | inactive
ANGPTL2 (angiopoietin like 2) | 3 | -0.521 | -0.7 | 3.63 | inactive
SLC35E2B | 1 | 0.754 | 8.27 | 7.1 | inactive
SLC35E2B | 2 | -0.379 | 0.301 | 3.41 | inactive
SLC35E2B | 3 | -0.547 | -0.881 | 2.76 | inactive
CABLES2 (Cdk5 and Abl enzyme substrate 2) | 1 | -0.757 | -2.36 | 1.69 | inactive
CABLES2 (Cdk5 and Abl enzyme substrate 2) | 2 | 3.81 | 29.7 | 14 | inactive
CABLES2 (Cdk5 and Abl enzyme substrate 2) | 3 | 0.109 | 3.73 | 4.56 | inactive
TMOD4 (tropomodulin 4) | 1 | -0.0548 | 2.58 | 4.84 | inactive
TMOD4 (tropomodulin 4) | 2 | 0.274 | 4.89 | 6.4 | inactive
TMOD4 (tropomodulin 4) | 3 | 0.501 | 6.49 | 5.3 | inactive
LGI1 (leucine rich glioma inactivated 1) | 1 | -0.26 | 1.14 | 5.11 | inactive
LGI1 (leucine rich glioma inactivated 1) | 2 | -0.55 | -0.9 | 4.95 | inactive
LGI1 (leucine rich glioma inactivated 1) | 3 | -1.01 | -4.13 | 2.66 | inactive
LOC729681 | 1 | -0.822 | -2.82 | 2.98 | inactive
LOC729681 | 2 | 0.576 | 7.02 | 5.59 | inactive
LOC729681 | 3 | 0.125 | 3.85 | 4.58 | inactive
CYP1A1 (cytochrome P450 family 1 subfamily A member 1) | 1 | -0.679 | -1.81 | 4.32 | inactive
CYP1A1 (cytochrome P450 family 1 subfamily A member 1) | 2 | -1.02 | -4.19 | 3.46 | inactive
CYP1A1 (cytochrome P450 family 1 subfamily A member 1) | 3 | -0.232 | 1.33 | 4.56 | inactive
TNNT2 (troponin T2, cardiac type) | 1 | 5.45 | 41.3 | 23.4 | active
TNNT2 (troponin T2, cardiac type) | 2 | 1.01 | 10 | 7.88 | inactive
TNNT2 (troponin T2, cardiac type) | 3 | -0.209 | 1.5 | 3.88 | inactive
TNFRSF10B (TNF receptor superfamily member 10b) | 1 | 1.1 | 10.7 | 9.02 | inactive
TNFRSF10B (TNF receptor superfamily member 10b) | 2 | 0.527 | 6.68 | 7.1 | inactive
TNFRSF10B (TNF receptor superfamily member 10b) | 3 | -0.0467 | 2.64 | 5.74 | inactive
UBE2L3 (ubiquitin conjugating enzyme E2 L3) | 1 | 0.173 | 4.18 | 7.36 | inactive
UBE2L3 (ubiquitin conjugating enzyme E2 L3) | 2 | 1.46 | 13.2 | 8.83 | inactive
UBE2L3 (ubiquitin conjugating enzyme E2 L3) | 3 | -0.299 | 0.862 | 4.58 | inactive
CAD | 1 | -0.333 | 0.624 | 4.22 | inactive
CAD | 2 | -1.32 | -6.33 | 2.82 | inactive
CAD | 3 | 3.34 | 26.4 | 13.7 | inactive
SEPTIN1 (septin 1) | 1 | -0.418 | 0.0239 | 4.1 | inactive
SEPTIN1 (septin 1) | 2 | -1.07 | -4.59 | 3.33 | inactive
SEPTIN1 (septin 1) | 3 | -0.931 | -3.58 | 3.69 | inactive
MTUS1 (microtubule associated scaffold protein 1) | 1 | 0.859 | 9.01 | 7.9 | inactive
MTUS1 (microtubule associated scaffold protein 1) | 2 | -0.478 | -0.396 | 4.27 | inactive
MTUS1 (microtubule associated scaffold protein 1) | 3 | 0.444 | 6.09 | 4.96 | inactive
RAP1GAP (RAP1 GTPase activating protein) | 1 | 1.34 | 12.4 | 10.3 | inactive
RAP1GAP (RAP1 GTPase activating protein) | 2 | 0.407 | 5.83 | 6.52 | inactive
RAP1GAP (RAP1 GTPase activating protein) | 3 | -0.924 | -3.54 | 2.08 | inactive
TRIP6 (thyroid hormone receptor interactor 6) | 1 | -0.715 | -2.07 | 4.72 | inactive
TRIP6 (thyroid hormone receptor interactor 6) | 2 | -1.16 | -5.21 | 2.76 | inactive
TRIP6 (thyroid hormone receptor interactor 6) | 3 | -0.492 | -0.491 | 4.08 | inactive
MYO15A (myosin XVA) | 1 | 0.808 | 8.65 | 9.88 | inactive
MYO15A (myosin XVA) | 2 | 0.168 | 4.15 | 5.78 | inactive
MYO15A (myosin XVA) | 3 | 0.589 | 7.11 | 6.53 | inactive
HDAC8 (histone deacetylase 8) | 1 | -1.07 | -4.59 | 4.42 | inactive
HDAC8 (histone deacetylase 8) | 2 | -0.141 | 1.97 | 5.15 | inactive
HDAC8 (histone deacetylase 8) | 3 | 1.37 | 12.6 | 9.6 | inactive
APCS (amyloid P component, serum) | 1 | -0.158 | 1.85 | 4.2 | inactive
APCS (amyloid P component, serum) | 2 | 1.02 | 10.2 | 9.61 | inactive
APCS (amyloid P component, serum) | 3 | -0.626 | -1.44 | 2.59 | inactive
PARPBP (PARP1 binding protein) | 1 | 1.18 | 11.2 | 8.84 | inactive
PARPBP (PARP1 binding protein) | 2 | 4.32 | 33.4 | 18 | inactive
PARPBP (PARP1 binding protein) | 3 | -0.463 | -0.287 | 3.05 | inactive
EPHB4 (EPH receptor B4) | 1 | -0.815 | -2.76 | 4.69 | inactive
EPHB4 (EPH receptor B4) | 2 | -1.03 | -4.27 | 3.97 | inactive
EPHB4 (EPH receptor B4) | 3 | -0.838 | -2.93 | 2.99 | inactive
LOC727751 (golgin A2 pseudogene) | 1 | -0.744 | -2.26 | 2.07 | inactive
LOC727751 (golgin A2 pseudogene) | 2 | -0.96 | -3.79 | 2.17 | inactive
LOC727751 (golgin A2 pseudogene) | 3 | 0.369 | 5.56 | 5.65 | inactive
PGAP2 (post-GPI attachment to proteins 2) | 1 | -0.416 | 0.039 | 2.81 | inactive
PGAP2 (post-GPI attachment to proteins 2) | 2 | -1.4 | -6.88 | 2.8 | inactive
PGAP2 (post-GPI attachment to proteins 2) | 3 | 2.51 | 20.7 | 10.1 | inactive
NXNL1 (nucleoredoxin like 1) | 1 | 0.902 | 9.32 | 8 | inactive
NXNL1 (nucleoredoxin like 1) | 2 | 0.474 | 6.3 | 7.67 | inactive
NXNL1 (nucleoredoxin like 1) | 3 | 3.49 | 27.5 | 18.5 | inactive
PJA1 (praja ring finger ubiquitin ligase 1) | 1 | 2.61 | 21.4 | 11.9 | inactive
PJA1 (praja ring finger ubiquitin ligase 1) | 2 | -0.732 | -2.18 | 4.74 | inactive
PJA1 (praja ring finger ubiquitin ligase 1) | 3 | -0.439 | -0.124 | 4.18 | inactive
C1QB (complement C1q B chain) | 1 | 0.736 | 8.15 | 9.12 | inactive
C1QB (complement C1q B chain) | 2 | -1.09 | -4.73 | 2.35 | inactive
C1QB (complement C1q B chain) | 3 | 3.24 | 25.8 | 13.6 | inactive
PPP2R5C (protein phosphatase 2 regulatory subunit B'gamma) | 1 | 0.29 | 5.01 | 6.42 | inactive
PPP2R5C (protein phosphatase 2 regulatory subunit B'gamma) | 2 | -0.92 | -3.5 | 3.25 | inactive
PPP2R5C (protein phosphatase 2 regulatory subunit B'gamma) | 3 | 3.94 | 30.7 | 12.7 | inactive
SP8 (Sp8 transcription factor) | 1 | 0.911 | 9.37 | 6.32 | inactive
SP8 (Sp8 transcription factor) | 2 | 3.15 | 25.2 | 11.9 | inactive
SP8 (Sp8 transcription factor) | 3 | 0.602 | 7.21 | 6.05 | inactive

Laid out differently: 9 of the entries above.
H2AC14 (H2A clustered histone 14) #1 → G2 robust z-score: 4.01; G2 cells, % of GMNN control: 31.2; raw share of cells in G2 (%): 19; outcome: inactive
H2AC14 (H2A clustered histone 14) #2 → G2 robust z-score: 0.566; G2 cells, % of GMNN control: 6.95; raw share of cells in G2 (%): 6.65; outcome: inactive
H2AC14 (H2A clustered histone 14) #3 → G2 robust z-score: -0.159; G2 cells, % of GMNN control: 1.85; raw share of cells in G2 (%): 4; outcome: inactive
ANGPTL2 (angiopoietin like 2) #1 → G2 robust z-score: -1.51; G2 cells, % of GMNN control: -7.66; raw share of cells in G2 (%): 3.29; outcome: inactive
ANGPTL2 (angiopoietin like 2) #2 → G2 robust z-score: -0.966; G2 cells, % of GMNN control: -3.83; raw share of cells in G2 (%): 2.87; outcome: inactive
ANGPTL2 (angiopoietin like 2) #3 → G2 robust z-score: -0.521; G2 cells, % of GMNN control: -0.7; raw share of cells in G2 (%): 3.63; outcome: inactive
SLC35E2B #1 → G2 robust z-score: 0.754; G2 cells, % of GMNN control: 8.27; raw share of cells in G2 (%): 7.1; outcome: inactive
SLC35E2B #2 → G2 robust z-score: -0.379; G2 cells, % of GMNN control: 0.301; raw share of cells in G2 (%): 3.41; outcome: inactive
SLC35E2B #3 → G2 robust z-score: -0.547; G2 cells, % of GMNN control: -0.881; raw share of cells in G2 (%): 2.76; outcome: inactive
